Assay results taken from the supplement of paper PMC11006884.
Only a part is listed here, and it is no random draw.

Amino acid sequences for entries named in this document (tags omitted). A change or cut given only in a name is not applied to a line headed by its entry.
UniProt O14965: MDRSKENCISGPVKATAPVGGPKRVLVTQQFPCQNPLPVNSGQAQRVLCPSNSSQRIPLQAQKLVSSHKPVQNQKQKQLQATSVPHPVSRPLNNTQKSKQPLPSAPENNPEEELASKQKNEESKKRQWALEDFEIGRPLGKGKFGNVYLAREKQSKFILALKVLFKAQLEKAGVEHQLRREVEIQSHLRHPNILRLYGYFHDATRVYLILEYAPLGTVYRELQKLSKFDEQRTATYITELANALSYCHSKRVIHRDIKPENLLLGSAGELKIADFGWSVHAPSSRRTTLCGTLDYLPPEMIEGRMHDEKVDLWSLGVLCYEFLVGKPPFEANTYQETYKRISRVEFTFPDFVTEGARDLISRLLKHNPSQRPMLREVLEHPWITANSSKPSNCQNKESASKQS
UniProt O14654: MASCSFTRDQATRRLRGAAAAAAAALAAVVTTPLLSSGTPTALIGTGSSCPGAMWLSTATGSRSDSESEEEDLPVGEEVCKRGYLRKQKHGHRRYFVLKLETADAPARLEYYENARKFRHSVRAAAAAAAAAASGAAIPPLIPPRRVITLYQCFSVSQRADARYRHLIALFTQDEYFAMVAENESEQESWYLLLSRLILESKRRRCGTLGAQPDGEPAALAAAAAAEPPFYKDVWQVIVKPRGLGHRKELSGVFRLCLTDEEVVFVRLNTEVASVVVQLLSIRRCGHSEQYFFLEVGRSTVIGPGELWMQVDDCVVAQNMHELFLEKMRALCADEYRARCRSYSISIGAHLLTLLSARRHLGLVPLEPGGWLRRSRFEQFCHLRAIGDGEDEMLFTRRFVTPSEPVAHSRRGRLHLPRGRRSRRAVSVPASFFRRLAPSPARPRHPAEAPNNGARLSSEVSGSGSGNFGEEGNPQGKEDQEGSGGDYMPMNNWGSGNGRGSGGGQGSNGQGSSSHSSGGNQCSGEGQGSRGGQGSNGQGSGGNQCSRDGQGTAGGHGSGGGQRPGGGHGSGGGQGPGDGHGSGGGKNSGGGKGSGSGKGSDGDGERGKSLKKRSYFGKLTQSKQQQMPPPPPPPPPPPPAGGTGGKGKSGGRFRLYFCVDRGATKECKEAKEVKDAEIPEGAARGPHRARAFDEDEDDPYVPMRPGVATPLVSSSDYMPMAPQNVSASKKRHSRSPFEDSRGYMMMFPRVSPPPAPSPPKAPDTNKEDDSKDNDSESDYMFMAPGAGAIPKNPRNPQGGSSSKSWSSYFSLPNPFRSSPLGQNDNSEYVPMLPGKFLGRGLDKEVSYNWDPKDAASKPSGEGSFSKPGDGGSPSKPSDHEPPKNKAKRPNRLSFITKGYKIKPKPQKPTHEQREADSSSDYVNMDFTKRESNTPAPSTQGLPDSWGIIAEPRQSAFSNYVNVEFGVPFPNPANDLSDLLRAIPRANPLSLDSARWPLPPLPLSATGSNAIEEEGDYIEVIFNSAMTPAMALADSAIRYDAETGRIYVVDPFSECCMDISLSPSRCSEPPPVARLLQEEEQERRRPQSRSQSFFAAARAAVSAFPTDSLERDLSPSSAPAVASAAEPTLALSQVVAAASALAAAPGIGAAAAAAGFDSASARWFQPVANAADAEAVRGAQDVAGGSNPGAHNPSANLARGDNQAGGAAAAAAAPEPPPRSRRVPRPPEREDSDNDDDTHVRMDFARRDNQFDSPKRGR
UniProt O15067: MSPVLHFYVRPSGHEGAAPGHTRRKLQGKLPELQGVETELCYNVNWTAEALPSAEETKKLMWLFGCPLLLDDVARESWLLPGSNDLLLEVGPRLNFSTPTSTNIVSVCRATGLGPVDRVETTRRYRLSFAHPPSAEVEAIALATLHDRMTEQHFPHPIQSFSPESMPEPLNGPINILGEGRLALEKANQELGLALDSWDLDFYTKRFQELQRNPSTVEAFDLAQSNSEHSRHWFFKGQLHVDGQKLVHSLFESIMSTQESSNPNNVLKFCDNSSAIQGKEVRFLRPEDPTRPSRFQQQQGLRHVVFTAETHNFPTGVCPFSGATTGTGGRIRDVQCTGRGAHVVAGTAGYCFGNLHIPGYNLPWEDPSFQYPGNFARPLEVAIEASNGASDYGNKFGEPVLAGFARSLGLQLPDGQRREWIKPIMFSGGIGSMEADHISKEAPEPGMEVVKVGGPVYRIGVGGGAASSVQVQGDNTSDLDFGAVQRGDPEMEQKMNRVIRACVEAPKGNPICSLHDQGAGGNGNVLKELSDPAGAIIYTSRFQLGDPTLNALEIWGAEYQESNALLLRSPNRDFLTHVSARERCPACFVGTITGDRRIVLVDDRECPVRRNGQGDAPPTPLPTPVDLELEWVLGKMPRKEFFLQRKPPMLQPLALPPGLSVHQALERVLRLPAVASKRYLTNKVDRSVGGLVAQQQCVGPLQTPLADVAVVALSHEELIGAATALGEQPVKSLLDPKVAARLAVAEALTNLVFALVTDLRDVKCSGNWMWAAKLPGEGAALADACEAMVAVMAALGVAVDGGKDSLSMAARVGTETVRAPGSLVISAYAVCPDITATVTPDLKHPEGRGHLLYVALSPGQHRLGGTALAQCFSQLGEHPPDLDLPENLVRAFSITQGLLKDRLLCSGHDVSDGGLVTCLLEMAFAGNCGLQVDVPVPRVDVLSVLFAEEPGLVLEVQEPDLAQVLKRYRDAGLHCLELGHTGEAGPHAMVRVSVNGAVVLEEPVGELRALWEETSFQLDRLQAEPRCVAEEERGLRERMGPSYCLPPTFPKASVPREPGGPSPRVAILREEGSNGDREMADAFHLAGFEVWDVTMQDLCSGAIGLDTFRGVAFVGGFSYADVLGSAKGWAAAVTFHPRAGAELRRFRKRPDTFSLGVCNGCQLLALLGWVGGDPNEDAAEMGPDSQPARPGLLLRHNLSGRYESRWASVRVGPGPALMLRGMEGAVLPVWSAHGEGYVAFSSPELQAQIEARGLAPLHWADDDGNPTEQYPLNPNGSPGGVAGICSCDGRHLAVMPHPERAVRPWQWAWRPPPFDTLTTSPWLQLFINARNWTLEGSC
UniProt O15417: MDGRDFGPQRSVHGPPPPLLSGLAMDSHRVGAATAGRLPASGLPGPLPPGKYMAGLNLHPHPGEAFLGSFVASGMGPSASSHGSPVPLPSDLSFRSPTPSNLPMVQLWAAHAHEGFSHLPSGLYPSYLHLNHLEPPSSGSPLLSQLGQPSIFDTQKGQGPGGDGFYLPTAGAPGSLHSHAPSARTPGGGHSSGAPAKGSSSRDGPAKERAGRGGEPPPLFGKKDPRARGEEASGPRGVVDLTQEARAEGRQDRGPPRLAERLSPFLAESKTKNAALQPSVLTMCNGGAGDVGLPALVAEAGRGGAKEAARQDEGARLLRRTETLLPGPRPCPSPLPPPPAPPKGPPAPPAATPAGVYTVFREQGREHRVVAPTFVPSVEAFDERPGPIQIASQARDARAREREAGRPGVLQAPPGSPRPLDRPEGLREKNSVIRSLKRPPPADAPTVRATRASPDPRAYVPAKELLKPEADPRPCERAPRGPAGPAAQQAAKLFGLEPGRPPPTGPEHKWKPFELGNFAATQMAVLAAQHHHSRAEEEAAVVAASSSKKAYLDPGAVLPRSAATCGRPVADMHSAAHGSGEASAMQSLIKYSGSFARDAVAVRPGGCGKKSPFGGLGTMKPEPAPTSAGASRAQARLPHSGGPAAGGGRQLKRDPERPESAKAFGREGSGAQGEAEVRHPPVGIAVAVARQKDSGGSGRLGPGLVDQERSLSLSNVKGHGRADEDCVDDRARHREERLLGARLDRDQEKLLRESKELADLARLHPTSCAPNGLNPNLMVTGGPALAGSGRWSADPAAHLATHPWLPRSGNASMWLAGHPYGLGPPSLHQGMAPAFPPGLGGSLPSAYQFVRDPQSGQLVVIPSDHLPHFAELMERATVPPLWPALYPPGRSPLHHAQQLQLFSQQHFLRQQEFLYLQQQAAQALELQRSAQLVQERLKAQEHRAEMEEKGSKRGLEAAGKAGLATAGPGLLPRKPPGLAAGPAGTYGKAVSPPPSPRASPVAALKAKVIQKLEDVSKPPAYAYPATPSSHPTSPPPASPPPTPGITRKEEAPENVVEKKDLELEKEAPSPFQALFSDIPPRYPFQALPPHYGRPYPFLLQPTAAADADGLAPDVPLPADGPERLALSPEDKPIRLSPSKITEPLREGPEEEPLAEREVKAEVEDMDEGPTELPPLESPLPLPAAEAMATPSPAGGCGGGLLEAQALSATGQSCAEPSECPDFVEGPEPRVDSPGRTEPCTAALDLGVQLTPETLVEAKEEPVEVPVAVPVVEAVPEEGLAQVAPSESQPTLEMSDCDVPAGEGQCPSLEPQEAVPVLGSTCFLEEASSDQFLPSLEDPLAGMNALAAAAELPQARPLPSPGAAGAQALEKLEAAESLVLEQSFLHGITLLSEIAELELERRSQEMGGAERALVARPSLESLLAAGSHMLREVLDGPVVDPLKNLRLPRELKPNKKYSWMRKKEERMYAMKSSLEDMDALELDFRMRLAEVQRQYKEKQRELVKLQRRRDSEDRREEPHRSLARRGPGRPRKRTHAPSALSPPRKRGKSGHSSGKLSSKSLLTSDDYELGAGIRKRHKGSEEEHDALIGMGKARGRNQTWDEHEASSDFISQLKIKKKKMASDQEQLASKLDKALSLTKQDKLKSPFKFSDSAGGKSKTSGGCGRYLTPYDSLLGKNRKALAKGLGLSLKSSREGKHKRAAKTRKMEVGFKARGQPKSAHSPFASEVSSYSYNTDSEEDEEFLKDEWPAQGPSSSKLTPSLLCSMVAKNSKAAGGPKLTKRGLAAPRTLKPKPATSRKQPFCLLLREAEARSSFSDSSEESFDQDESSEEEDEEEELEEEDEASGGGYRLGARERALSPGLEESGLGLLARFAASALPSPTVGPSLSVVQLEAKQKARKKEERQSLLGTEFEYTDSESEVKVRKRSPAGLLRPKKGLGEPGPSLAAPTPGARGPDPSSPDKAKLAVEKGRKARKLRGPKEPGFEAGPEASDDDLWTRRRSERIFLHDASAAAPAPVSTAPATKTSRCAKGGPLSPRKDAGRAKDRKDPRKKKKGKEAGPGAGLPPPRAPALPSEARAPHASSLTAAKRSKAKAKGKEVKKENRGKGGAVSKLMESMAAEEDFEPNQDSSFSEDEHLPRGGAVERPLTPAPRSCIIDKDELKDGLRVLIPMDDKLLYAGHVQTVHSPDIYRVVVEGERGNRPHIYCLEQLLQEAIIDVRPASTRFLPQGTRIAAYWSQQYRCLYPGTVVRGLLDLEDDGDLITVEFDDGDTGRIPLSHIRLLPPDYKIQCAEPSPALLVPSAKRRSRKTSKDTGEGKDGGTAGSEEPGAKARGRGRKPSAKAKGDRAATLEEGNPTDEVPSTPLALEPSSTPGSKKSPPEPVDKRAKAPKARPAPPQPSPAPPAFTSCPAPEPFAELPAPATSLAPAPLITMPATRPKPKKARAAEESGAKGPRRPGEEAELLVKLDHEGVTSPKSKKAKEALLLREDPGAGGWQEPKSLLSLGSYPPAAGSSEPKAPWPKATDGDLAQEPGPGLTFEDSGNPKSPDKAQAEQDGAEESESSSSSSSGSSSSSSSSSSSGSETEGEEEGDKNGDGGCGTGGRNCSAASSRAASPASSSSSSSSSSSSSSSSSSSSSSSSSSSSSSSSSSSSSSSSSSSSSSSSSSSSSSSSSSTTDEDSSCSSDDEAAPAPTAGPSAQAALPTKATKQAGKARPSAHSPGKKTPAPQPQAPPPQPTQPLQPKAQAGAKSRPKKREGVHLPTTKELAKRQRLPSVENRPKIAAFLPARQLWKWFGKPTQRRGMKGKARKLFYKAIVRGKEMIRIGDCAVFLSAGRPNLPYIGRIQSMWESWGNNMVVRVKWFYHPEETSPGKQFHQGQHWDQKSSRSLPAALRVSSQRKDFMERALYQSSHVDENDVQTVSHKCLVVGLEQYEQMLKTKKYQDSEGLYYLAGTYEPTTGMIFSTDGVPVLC
UniProt O00217, whole entry: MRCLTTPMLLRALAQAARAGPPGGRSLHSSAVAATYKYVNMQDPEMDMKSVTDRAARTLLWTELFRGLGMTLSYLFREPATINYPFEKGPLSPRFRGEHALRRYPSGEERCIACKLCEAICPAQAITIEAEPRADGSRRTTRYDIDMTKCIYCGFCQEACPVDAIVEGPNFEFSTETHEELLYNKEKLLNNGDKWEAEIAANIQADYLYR
UniProt O00442: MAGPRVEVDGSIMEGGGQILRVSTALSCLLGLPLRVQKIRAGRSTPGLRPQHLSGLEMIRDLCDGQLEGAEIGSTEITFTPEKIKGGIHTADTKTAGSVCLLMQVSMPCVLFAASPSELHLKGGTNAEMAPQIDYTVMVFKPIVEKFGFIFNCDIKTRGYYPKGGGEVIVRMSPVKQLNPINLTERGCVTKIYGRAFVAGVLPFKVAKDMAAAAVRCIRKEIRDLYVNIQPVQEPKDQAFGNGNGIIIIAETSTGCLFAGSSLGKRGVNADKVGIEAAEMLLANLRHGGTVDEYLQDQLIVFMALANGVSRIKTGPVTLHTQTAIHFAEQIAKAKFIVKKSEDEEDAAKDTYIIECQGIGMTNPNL

compound: COC(=O)C#Cc1ccccc1 [methyl 3-phenylpropiolate]; experiment: log2 ratio of iodoacetamide-alkyne labeling of the cysteine site, DMSO over compound (competition); higher = stronger covalent engagement of the cysteine by the compound, active = 1 or more; details: 500 µM; treatment time 1 h; system: HEK293T cell lysate
Summary of the method: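 Electrophile (500 µM) or vehicle was added to HEK293T lysate (2 mg/mL) for 1 h at ambient temperature before iodoacetamide alkyne labelling (1 h) and click coupling to sCIP-TMT reagents. After pooling, overnight trypsin digestion at 37 °C, streptavidin enrichment and acid elution, peptides were measured by Orbitrap Eclipse LC-MS/MS with FAIMS and quantified in FragPipe. Each cysteine's log2 competition ratio compares mean control-channel with mean compound-channel reporter intensity, control over compound. Data came from duplicate channels across three replicates, excluding cysteines quantified in only one replicate.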

Target | log2 ratio of iodoacetamide-alkyne labeling
UniProt O00148_C164 | inactive: 0.0125
IPO5 C229 (UniProt O00410) | inactive: 0.0502
EXOC5 C675 (UniProt O00471) | inactive: 0.193
SUPT5H C740 (UniProt O00267) | inactive: 0.00252
UniProt O14965_C290 | inactive: 0.197
POLRMT C535 (UniProt O00411) | inactive: 0.0235
SPTBN2 C607 (UniProt O15020) | inactive: 0.479
GAK C190 (UniProt O14976) | inactive: 0.637
UniProt O15042_C65 | inactive: 0.257
CLIC1 C191 (UniProt O00299) | inactive: -0.029
IRS4 C381 (UniProt O14654) | inactive: 0.737
PFAS C66 (UniProt O15067) | inactive: 0.518
TNRC18 C2288 (UniProt O15417) | inactive: 0.37
ARVCF C770 (UniProt O00192) | inactive: 0.146
PFAS C871 (UniProt O15067) | inactive: 0.199
NDUFS8 C117 (UniProt O00217) | inactive: 0.0636
SNAP23 C112 (UniProt O00161) | inactive: 0.146
UniProt O00442_C100 | inactive: 0.0905
MGST3 C56 (UniProt O14880) | inactive: 0.0847

Taken from the listing (seven entries):
Target | log2 ratio of iodoacetamide-alkyne labeling
SPTBN2 C607 (UniProt O15020) | inactive: 0.479
GAK C190 (UniProt O14976) | inactive: 0.637
UniProt O15042_C65 | inactive: 0.257
CLIC1 C191 (UniProt O00299) | inactive: -0.029
IRS4 C381 (UniProt O14654) | inactive: 0.737
PFAS C66 (UniProt O15067) | inactive: 0.518
TNRC18 C2288 (UniProt O15417) | inactive: 0.37

More results follow.

Target | log2 ratio of iodoacetamide-alkyne labeling
PEX7 C5 (UniProt O00628) | inactive: 0.453
EIF3CL C79 (UniProt B5ME19) | inactive: 0.24
NKRF C246 (UniProt O15226) | inactive: 0.516
PPM1G C351 (UniProt O15355) | inactive: 0.334
KIF2A C596 (UniProt O00139) | inactive: -0.0646
IPO5 C733 (UniProt O00410) | inactive: 0.0253
IRS4 C522 (UniProt O14654) | inactive: 0.802
PDLIM1 C307 (UniProt O00151) | inactive: -0.118
DNM1L C431 (UniProt O00429) | inactive: 0.753
SPTLC1 C100 (UniProt O15269) | inactive: -0.144
POLRMT C591 (UniProt O00411) | inactive: -0.567
KIF2A C406 (UniProt O00139) | inactive: 0.164
PDLIM1 C263 (UniProt O00151) | inactive: -0.0189
ARPC3 C162 (UniProt O15145) | inactive: 0.237
POM121C C438 (UniProt A8CG34) | active: 1.04
HAT1 C120 (UniProt O14929) | inactive: 0.32
PSMD9 C59 (UniProt O00233) | inactive: 0.273
PSMD9 C216 (UniProt O00233) | inactive: -0.0404
